Results: the supplement of paper PMC12823440, “Inhibitors supercharge kinase turnover through native proteolytic circuits” (Nature, 2025)
Counter-ions that a name gives are not always drawn. The list shows a part of the results. The calls rarely recur for the same compound in another form.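 Kinases were expressed as nanoluciferase fusions in K562 cells and luminescence was read every 4 h between 2 and 18 h as percent of control, DMSO set to 100% and a positive control to 0%. A time point counts as decreased when the signal drops significantly (2 sigma). The hit call is the authors' own, does not follow from the count of time points alone, and its rule is not shown.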

Sequences of proteins named here, by UniProt entry; tags and fusion partners are left off. A change or cut given only in a name is not applied to a line headed by its entry.
UniProt Q05397, whole entry, looked up: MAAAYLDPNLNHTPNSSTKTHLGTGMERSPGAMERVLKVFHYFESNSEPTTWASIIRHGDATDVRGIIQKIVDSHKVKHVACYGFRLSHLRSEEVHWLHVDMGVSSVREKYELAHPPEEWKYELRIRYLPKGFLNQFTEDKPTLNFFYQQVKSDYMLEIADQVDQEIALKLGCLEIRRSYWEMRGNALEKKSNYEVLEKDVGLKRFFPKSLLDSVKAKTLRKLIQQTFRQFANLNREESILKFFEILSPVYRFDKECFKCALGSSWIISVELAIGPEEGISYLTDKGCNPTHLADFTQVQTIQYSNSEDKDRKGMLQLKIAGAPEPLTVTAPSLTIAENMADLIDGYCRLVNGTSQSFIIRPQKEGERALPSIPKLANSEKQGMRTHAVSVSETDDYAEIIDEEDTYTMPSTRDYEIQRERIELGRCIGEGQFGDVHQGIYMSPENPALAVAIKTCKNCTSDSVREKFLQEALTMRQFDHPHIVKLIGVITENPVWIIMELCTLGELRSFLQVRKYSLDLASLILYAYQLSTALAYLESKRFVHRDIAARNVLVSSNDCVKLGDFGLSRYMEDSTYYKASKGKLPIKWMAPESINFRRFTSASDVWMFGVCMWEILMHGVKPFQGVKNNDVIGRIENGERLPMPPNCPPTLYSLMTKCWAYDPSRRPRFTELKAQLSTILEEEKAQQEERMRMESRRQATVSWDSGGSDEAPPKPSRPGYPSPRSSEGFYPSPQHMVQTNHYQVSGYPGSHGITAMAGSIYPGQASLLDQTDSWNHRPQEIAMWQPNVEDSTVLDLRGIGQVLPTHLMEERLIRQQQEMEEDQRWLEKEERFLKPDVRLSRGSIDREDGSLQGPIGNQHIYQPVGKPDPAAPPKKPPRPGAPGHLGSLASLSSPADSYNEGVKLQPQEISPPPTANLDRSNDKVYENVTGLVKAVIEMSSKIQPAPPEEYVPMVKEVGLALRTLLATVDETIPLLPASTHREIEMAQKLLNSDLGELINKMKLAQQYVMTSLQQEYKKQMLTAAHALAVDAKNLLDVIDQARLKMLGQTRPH
UniProt Q14289, whole entry, looked up: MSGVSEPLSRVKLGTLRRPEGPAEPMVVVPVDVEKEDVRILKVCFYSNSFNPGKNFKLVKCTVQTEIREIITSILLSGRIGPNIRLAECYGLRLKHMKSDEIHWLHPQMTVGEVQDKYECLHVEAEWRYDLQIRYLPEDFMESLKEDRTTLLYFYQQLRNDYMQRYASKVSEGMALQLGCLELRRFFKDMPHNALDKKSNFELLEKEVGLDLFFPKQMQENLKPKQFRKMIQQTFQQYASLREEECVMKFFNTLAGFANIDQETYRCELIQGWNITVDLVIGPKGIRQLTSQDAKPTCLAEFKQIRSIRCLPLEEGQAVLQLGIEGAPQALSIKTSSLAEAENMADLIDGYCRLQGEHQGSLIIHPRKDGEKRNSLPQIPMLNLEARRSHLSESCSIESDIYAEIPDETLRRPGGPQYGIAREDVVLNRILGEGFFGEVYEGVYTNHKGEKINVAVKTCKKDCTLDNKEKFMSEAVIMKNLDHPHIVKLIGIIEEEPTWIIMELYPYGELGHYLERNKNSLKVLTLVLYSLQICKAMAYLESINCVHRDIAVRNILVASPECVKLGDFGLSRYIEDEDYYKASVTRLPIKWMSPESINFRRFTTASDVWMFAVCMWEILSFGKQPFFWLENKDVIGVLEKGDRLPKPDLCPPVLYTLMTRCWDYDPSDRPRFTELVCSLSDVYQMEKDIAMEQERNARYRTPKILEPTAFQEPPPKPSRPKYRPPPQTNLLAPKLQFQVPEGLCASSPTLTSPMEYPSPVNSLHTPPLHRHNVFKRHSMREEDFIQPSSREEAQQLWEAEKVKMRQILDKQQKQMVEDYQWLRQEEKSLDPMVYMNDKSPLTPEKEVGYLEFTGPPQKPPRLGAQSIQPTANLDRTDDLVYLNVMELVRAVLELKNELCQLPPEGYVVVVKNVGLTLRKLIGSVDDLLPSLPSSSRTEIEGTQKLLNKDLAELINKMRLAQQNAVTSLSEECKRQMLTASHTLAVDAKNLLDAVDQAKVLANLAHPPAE
UniProt P07949, whole entry, looked up: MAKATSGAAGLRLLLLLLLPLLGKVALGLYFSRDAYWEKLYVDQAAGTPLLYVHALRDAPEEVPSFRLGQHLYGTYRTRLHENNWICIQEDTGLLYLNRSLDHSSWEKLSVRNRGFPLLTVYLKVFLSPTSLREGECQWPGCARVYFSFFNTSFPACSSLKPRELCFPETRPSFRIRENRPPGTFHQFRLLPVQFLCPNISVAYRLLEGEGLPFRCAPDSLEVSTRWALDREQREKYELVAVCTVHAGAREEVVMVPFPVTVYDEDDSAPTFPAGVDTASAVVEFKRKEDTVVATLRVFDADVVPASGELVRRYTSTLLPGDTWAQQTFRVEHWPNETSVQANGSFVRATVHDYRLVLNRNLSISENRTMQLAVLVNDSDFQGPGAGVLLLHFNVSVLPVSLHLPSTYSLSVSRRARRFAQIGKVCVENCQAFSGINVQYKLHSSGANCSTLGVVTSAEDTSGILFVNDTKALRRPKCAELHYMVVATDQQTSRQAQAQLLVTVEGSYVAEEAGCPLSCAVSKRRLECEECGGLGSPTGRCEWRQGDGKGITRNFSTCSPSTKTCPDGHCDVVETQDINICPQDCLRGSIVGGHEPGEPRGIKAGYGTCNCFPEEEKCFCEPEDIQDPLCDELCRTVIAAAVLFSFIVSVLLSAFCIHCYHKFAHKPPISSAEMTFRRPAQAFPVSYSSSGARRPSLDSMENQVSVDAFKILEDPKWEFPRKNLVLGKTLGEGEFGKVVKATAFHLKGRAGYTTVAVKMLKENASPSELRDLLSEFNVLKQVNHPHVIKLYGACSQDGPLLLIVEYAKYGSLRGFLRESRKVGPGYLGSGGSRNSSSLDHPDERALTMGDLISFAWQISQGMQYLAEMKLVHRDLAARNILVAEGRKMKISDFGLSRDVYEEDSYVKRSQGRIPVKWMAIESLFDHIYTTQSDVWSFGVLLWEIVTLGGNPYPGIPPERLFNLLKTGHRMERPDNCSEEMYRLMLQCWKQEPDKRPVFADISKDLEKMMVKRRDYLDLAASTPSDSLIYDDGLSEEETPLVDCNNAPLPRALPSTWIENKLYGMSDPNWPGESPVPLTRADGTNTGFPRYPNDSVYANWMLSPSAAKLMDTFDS
UniProt P07949, whole entry M918T, looked up: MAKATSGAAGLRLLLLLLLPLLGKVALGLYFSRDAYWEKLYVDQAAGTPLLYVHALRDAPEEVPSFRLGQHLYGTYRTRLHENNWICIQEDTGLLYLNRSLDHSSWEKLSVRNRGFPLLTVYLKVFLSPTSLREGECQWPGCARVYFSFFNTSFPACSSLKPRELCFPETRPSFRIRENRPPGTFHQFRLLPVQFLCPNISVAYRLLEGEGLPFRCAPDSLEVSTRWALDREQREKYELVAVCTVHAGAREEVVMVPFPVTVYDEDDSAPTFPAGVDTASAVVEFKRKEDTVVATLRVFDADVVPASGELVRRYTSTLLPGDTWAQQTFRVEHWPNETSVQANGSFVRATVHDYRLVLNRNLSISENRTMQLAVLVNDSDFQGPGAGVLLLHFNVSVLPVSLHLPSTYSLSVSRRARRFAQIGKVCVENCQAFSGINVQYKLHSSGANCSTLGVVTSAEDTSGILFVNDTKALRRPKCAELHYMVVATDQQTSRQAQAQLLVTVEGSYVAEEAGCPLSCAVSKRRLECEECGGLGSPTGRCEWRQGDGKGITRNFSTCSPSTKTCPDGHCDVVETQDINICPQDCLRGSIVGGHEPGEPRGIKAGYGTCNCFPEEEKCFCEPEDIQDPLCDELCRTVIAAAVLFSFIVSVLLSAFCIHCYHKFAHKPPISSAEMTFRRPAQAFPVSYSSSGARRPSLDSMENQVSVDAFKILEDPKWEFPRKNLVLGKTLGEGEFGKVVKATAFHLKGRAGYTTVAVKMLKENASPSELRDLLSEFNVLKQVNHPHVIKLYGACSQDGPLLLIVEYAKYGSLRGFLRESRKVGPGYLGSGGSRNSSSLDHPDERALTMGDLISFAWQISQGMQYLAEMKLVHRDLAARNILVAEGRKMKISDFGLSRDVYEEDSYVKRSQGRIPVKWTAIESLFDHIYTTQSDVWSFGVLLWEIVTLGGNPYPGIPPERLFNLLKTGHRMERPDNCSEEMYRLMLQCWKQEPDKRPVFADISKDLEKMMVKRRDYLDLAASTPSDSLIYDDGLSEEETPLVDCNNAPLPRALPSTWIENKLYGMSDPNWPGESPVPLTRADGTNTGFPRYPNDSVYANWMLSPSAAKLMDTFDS
UniProt Q9BRS2: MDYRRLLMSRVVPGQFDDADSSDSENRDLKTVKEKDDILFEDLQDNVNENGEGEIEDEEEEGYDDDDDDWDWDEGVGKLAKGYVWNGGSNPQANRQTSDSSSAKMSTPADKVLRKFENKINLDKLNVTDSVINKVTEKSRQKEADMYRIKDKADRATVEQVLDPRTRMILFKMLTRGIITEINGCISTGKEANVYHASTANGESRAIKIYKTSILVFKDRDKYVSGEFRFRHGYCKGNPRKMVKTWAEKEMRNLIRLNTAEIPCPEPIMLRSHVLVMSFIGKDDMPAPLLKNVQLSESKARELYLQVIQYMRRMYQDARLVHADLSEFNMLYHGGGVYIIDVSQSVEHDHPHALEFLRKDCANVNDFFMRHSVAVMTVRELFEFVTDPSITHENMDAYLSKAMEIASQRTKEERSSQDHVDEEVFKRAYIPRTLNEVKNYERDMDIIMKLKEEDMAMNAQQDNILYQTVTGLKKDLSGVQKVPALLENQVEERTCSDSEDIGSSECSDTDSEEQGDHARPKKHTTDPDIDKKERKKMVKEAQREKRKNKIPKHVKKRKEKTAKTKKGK
UniProt Q13546: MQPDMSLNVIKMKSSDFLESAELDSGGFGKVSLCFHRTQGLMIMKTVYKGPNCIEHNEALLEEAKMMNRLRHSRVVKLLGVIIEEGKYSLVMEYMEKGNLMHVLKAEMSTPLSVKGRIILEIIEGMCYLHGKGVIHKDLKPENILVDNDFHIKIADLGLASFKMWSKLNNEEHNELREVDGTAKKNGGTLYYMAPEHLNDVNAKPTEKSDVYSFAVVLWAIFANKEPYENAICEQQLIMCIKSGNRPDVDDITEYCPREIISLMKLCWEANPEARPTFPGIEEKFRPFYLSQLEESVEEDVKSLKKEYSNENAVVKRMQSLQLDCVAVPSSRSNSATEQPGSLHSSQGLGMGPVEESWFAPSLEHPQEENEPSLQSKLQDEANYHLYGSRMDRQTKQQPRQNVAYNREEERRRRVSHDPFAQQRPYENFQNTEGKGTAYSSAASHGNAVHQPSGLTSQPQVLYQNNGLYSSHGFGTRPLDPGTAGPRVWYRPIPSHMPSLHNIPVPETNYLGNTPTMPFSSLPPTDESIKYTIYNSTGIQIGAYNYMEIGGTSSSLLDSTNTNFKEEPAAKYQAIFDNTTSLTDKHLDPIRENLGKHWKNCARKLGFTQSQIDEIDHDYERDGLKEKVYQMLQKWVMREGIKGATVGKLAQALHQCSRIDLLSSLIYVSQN

What was measured:
Assay in all cases: number of time points (of 5) at which kinase-Nluc abundance scored as decreased, DMSO-normalised (count); higher = more persistent destabilization
Details in all cases: K562; 2-18 h
PRKCA = PRKCA (UniProt P17252)
PTK2 = PTK2 (UniProt Q05397)
PTK2B = PTK2B (UniProt Q14289)
RAF1 = RAF1 (UniProt P04049)
[1] = biological target: RAF1_S257L (clone: RAF1_mut) (UniProt P04049)
RET = RET (UniProt P07949)
[2] = biological target: RET_M918T (clone: RET_mut) (UniProt P07949)
RIOK1 = RIOK1 (UniProt Q9BRS2)
RIPK1 = RIPK1 (UniProt Q13546)
RIPK2 = RIPK2 (UniProt O43353)

Row | SMILES | number of time points (PRKCA) | number of time points (PTK2) | number of time points (PTK2B) | number of time points (RAF1) | number of time points [1] | number of time points (RET) | number of time points [2] | number of time points (RIOK1) | number of time points (RIPK1) | number of time points (RIPK2)
1 | O=C1OC(/C=C/c2ccccc2)=NC/1=C\c1cccnc1 (10 µM) | 0 | 0 | 0 | 0 | 0 | 0 | 0 | 0 | 0 | 0
2 | CCc1c[nH]c2ncnc(N3CC[C@](N)(CNC(=O)c4ccc(F)cc4F)C3)c12 (10 µM) | 0 | 0 | 0 | 0 | 0 | 0 | 0 | 0 | 0 | 0
3 | C=CC(=O)Nc1cc(Nc2nccc(-c3cn(C)c4ccccc34)n2)c(OC)cc1OCCN(C)C [Rezivertinib] (2.5 µM) | 0 | 0 | 0 | 0 | 0 | 0 | 0 | 0 | 0 | 0
4 | O=C(O)c1cc(N(Cc2ccccc2O)Cc2cc(O)ccc2O)ccc1O [Lavendustin A] (10 µM) | 1 | 0 | 0 | 0 | 0 | 0 | 0 | 0 | 1 | 0
5 | O=C(ON=C1c2ccccc2-c2nc3ccccc3nc21)c1ccco1 (2.5 µM) | 0 | 0 | 0 | 1 | 0 | 0 | 0 | 0 | 0 | 0
6 | O=c1[nH]ccc2nc(-c3ccc(CN4CCC(c5nc(-c6ccccn6)n[nH]5)CC4)cc3)c(-c3ccccc3)cc12 (10 µM) | 0 | 0 | 0 | 0 | 0 | 0 | 0 | 0 | 0 | 0
7 | Nc1nc(N)c2nc(-c3cccc(O)c3)c(-c3cccc(O)c3)nc2n1 (10 µM) | 0 | 0 | 0 | 0 | 0 | 0 | 0 | 0 | 0 | 0
8 | C[C@H]1O[C@@H](O[C@H]2CC[C@@]3(C)[C@@H](CC[C@]4(C)[C@@H]3C=C[C@]35OC[C@@]6(CCC(C)(C)C[C@H]63)[C@H](O)C[C@]54C)[C@]2(C)CO)[C@H](O)[C@@H](O[C@@H]2O[C@H](CO)[C@@H](O)[C@H](O)[C@H]2O)[C@H]1O [Saikosaponin D] (2.5 µM) | 0 | 0 | 0 | 0 | 1 | 0 | 0 | 0 | 0 | 0
9 | Cc1ccc(C)c(OCCn2cc(C(=O)O)c3ccccc32)c1 (10 µM) | 0 | 0 | 0 | 0 | 0 | 0 | 0 | 0 | 0 | 0
10 | O=C(Nc1cc(Cl)cc2c1[nH]c1cnccc12)c1cccnc1 (10 µM) | 0 | 0 | 0 | 0 | 0 | 0 | 0 | 0 | 0 | 0
11 | CNC(=O)CNc1cnc2ccc(-c3ccc(OC)c(OC)c3)cc2n1 (10 µM) | 0 | 0 | 0 | 0 | 0 | 0 | 0 | 0 | 0 | 0
12 | C=C1CCC[C@]2(C)C=C3OC(=O)C(C)=C3C[C@@H]12 [Atractylenolide I] (10 µM) | 0 | 0 | 0 | 0 | 0 | 0 | 0 | 0 | 0 | 0
13 | CNC(=O)c1ccc2c(c1)ncn2-c1ccc(CC(=O)OC(C)(C)C)cc1 (10 µM) | 0 | 0 | 0 | 0 | 0 | 0 | 0 | 0 | 0 | 0
14 | COc1ccc2c(Oc3ccc4c(C(=O)Nc5ccccc5N)cccc4c3)ccnc2c1 [Chiauranib] (10 µM) | 0 | 1 | 0 | 0 | 0 | 0 | 0 | 0 | 0 | 0
15 | CN1CCN(c2cc(-c3ccncc3)c(-c3ccc4ccccc4c3)nn2)CC1 (10 µM) | 0 | 0 | 0 | 0 | 0 | 0 | 0 | 0 | 0 | 0
16 | COC(=O)[C@H](CCSC)NC(=O)c1ccc(NC[C@@H](N)CS)cc1-c1ccccc1 [FTI-277 (hydrochloride)] (10 µM) | 0 | 0 | 0 | 0 | 0 | 0 | 0 | 0 | 0 | 0
17 | CC(Cc1ccc(O)c(O)c1)C(C)Cc1ccc(O)c(O)c1 (stereo not given) [Nordihydroguaiaretic acid] (2.5 µM) | 0 | 0 | 0 | 0 | 0 | 0 | 0 | 0 | 0 | 0

Single entries from the results shown:
number of time points (RIPK1) with `COC(=O)[C@H](CCSC)NC(=O)c1ccc(NC[C@@H](N)CS)cc1-c1ccccc1` [FTI-277 (hydrochloride)] (10 µM) is entered as 0
number of time points [2] with `CNC(=O)c1ccc2c(c1)ncn2-c1ccc(CC(=O)OC(C)(C)C)cc1` (10 µM) is entered as 0

The list goes on.

Row | SMILES | number of time points (PRKCA) | number of time points (PTK2) | number of time points (PTK2B) | number of time points (RAF1) | number of time points [1] | number of time points (RET) | number of time points [2] | number of time points (RIOK1) | number of time points (RIPK1) | number of time points (RIPK2)
18 | COc1ccc(-c2cc(=O)c3c(OC)cc(OC)c(OC)c3o2)cc1 [6-Demethoxytangeretin] (10 µM) | 0 | 0 | 0 | 0 | 0 | 0 | 0 | 0 | 0 | 0
19 | Cn1ncc(NC(=O)c2nc(-c3c(F)cccc3F)sc2N)c1N1CC[C@@H](N)[C@H](F)CC1 (10 µM) | 0 | 0 | 0 | 0 | 2 | 0 | 0 | 0 | 0 | 0
20 | CO[C@H]1C[C@@H]2CC[C@@H](C)[C@@](O)(O2)C(=O)C(=O)N2CCCC[C@H]2C(=O)O[C@H]([C@H](C)C[C@@H]2CC[C@@H](OC(=O)C(C)(CO)CO)[C@H](OC)C2)CC(=O)[C@H](C)/C=C(\C)[C@@H](O)[C@@H](OC)C(=O)[C@H](C)C[C@H](C)/C=C/C=C/C=C/1C [Temsirolimus] (2.5 µM) | 0 | 0 | 0 | 0 | 0 | 0 | 0 | 0 | 0 | 0
21 | N#Cc1ccc(-c2cnc3[nH]cc(NC(=O)c4cccnc4)c3c2)cc1 (10 µM) | 0 | 5 | 0 | 0 | 0 | 0 | 0 | 0 | 0 | 0
22 | CCn1c(-c2nonc2N)nc2c(C#CC(C)(C)O)ncc(OC[C@H]3CCCNC3)c21 (10 µM) | 0 | 0 | 0 | 0 | 0 | 0 | 0 | 0 | 0 | 0
23 | COCCOCCc1c(C)c2cc(OC)c(O)c(C=O)c2oc1=O (10 µM) | 0 | 0 | 0 | 0 | 0 | 0 | 0 | 0 | 0 | 0
24 | O=C(O)[C@H]1O[C@@H](Oc2cc3oc(-c4ccc(O)cc4)cc(=O)c3c(O)c2O)[C@H](O)[C@@H](O)[C@@H]1O [Scutellarin] (10 µM) | 0 | 0 | 0 | 0 | 0 | 0 | 0 | 0 | 0 | 0
25 | Cc1cc(Nc2cc(N)ncn2)c(=O)n2c1C(=O)NC21CCCCC1 [Tomivosertib] (10 µM) | 0 | 0 | 0 | 0 | 0 | 0 | 0 | 0 | 0 | 0
26 | CC(C)[C@H](CO)Nc1nc(Nc2cccc(Cl)c2)c2ncn(C(C)C)c2n1 [Purvalanol A] (10 µM) | 0 | 4 | 0 | 0 | 0 | 0 | 0 | 0 | 0 | 0
27 | Cc1cc(C(=O)NOCCO)c(Nc2ccc(I)cc2F)n(C)c1=O (10 µM) | 0 | 0 | 1 | 1 | 0 | 1 | 0 | 0 | 0 | 1
28 | Cc1ccc(-n2nc(C(C)(C)C)cc2NC(=O)Nc2ccc(OCCN3CCOCC3)cc2)cc1 (10 µM) | 0 | 0 | 0 | 0 | 0 | 0 | 0 | 0 | 0 | 0
29 | Cc1c(C)c(NCC(=O)N(C)C2CCN(Cc3ccc(C(N)=O)cc3)CC2)c(C)c(C)c1N (10 µM) | 0 | 0 | 0 | 0 | 0 | 0 | 0 | 0 | 0 | 0
30 | COc1cc(N2CCC(N3CCN(C)CC3)CC2)ccc1Nc1ncc(Cl)c(-c2c[nH]c3ccccc23)n1 (2.5 µM) | 0 | 0 | 0 | 0 | 0 | 0 | 0 | 0 | 0 | 0
31 | Nc1ncnc2c1nc(Br)n2[C@@H]1O[C@@H]2COP(=O)(O)O[C@H]2[C@H]1O [8-Bromo-cAMP sodium salt] (10 µM) | 0 | 0 | 0 | 0 | 0 | 0 | 0 | 0 | 0 | 0
32 | COc1cc2ncnc(Nc3ccc(O)c(Br)c3)c2cc1OC (10 µM) | 0 | 0 | 0 | 0 | 0 | 0 | 0 | 0 | 0 | 0
33 | COc1c(O)cc2oc(-c3ccc(O)cc3)cc(=O)c2c1O [Hispidulin] (10 µM) | 0 | 0 | 0 | 0 | 0 | 0 | 0 | 0 | 0 | 0
